The text below walks through data of article PMC11425230.

Protein sequences, listed by entry. Tags and fused reporters are not part of them. Residues count along the entry.
UniProt Q08345, residues 19-913: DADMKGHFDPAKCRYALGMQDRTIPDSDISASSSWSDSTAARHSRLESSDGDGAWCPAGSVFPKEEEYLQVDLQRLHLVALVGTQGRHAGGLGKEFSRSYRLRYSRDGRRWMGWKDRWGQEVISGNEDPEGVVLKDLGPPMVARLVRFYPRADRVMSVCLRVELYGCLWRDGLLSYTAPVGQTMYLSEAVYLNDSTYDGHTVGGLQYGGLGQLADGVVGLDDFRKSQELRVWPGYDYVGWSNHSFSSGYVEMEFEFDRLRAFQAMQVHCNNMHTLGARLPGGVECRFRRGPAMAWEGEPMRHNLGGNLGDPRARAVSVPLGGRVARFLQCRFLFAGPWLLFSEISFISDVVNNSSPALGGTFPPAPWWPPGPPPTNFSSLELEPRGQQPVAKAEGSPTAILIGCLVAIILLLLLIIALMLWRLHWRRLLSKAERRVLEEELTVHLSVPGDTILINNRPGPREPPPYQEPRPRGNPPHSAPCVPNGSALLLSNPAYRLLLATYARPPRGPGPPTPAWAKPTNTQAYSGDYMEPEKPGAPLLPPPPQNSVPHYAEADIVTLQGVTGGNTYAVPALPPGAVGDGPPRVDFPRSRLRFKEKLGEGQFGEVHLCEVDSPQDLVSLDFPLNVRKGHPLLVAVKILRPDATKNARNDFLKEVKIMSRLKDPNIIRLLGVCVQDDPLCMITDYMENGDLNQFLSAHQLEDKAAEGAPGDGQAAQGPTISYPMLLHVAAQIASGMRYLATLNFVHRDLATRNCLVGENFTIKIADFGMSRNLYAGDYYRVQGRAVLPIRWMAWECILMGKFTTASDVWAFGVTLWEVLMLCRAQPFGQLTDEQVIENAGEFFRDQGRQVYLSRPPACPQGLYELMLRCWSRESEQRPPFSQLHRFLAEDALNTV
UniProt Q16665: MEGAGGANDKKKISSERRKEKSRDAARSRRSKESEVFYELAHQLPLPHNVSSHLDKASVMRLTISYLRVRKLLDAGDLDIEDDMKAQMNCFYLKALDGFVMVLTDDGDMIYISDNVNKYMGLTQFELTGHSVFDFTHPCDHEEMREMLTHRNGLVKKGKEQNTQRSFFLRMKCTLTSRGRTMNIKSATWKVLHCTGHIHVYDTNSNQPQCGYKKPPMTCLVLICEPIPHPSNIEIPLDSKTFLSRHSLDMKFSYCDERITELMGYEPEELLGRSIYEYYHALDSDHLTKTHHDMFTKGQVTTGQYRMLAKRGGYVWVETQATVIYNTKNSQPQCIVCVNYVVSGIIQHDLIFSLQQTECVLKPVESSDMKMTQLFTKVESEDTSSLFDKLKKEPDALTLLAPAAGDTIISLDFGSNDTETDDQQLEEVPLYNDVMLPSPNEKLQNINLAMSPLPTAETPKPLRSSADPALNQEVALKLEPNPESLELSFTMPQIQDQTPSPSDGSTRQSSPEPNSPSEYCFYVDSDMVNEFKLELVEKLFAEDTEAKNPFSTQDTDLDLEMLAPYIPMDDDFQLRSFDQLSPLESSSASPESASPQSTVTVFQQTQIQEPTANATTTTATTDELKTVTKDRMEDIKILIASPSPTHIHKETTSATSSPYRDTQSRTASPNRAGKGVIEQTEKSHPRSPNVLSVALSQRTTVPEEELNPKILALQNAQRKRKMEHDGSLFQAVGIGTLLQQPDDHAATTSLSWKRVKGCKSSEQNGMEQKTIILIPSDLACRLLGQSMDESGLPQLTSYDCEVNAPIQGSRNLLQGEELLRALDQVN

These are yes or no findings as the source states them, for the method shown. Binding seen in cells or lysates may run through a third protein. Some entries that bind do so weakly or less than the wild type.

Assay [1] has as its target HA-tagged DDR1 (pEZ-M07-HA-DDR1) (UniProt Q08345). Put plainly: co-IP; lysates of HEK293T cells co-transfected with DDR1-HA and Flag-tagged HIF-1α or its deletion mutants; anti-HA or anti-Flag antibody, Protein A/G magnetic beads at 4 °C; western blot. In general terms: Immunoblotting shows a protein as a band on a membrane.
In assay [2] the target is hypoxia-inducible factor-1α (HIF-1α), endogenous in gastric cancer cells (human (endogenous in HGC27 and AGS)) (UniProt Q16665). Put plainly: co-IP; lysates of HGC27 and AGS cells transduced with the DDR1-expressing or control vector; IP lysis buffer; anti-DDR1 or anti-HIF-1α antibody overnight, Protein A/G magnetic beads at 4 °C for 2 h; western blot.
For assay [3], the target named is discoidin domain receptor 1 (DDR1), full-length cDNA in the lentiviral vector pEZ-Lv201 (UniProt Q08345). The description is as above.

As for “Flag-tagged HIF-1α, full length (pEZ-M14-Flag-HIF-1α) (from UniProt Q16665 1-826)”, in assay [1], the binding entry is given as “binds”.
On to “discoidin domain receptor 1 (DDR1), full-length cDNA in the lentiviral vector pEZ-Lv201 (from UniProt Q08345 19-913)”, for which the binding entry in assay [2] is reported as “binds”.
For “hypoxia-inducible factor-1α (HIF-1α), endogenous in gastric cancer cells (from UniProt Q16665 1-826)”, the binding entry in assay [3] was “binds”.
